Measurements reported in PubChem BioAssay AID1224830 (NIAID, 2016).
In all, the deposit lists about 18,000 reagents; this is an unselected part. About 2,900 of all reagents (16%) count as active. 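Calls are made per well; low scores hint the gene aids the LPS response, high scores that it dampens it.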 Repeated entries: four replicate wells of each siRNA pool. Reagent sequences are not shown.

Aim: 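Host factors that control LPS-induced TNF expression in human macrophages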 (primary screen)
Cell system: human THP-1 monocytic leukaemia cells, TNF dual-luciferase reporter clone, PMA-differentiated to macrophage-like cells
Reagent: siRNA pool against human genes, 50 nM
Duration: LPS for 4 h, given about 3 days after siRNA transfection
Conditions: bacterial LPS (TLR4 ligand), 10 ng/ml
Measured: 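Ratio of firefly to renilla light, scaled to the plate median and expressed as a robust z-score per replicate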
Scale: TNF reporter robust z-score: higher = stronger TNF reporter response to LPS
Rule for the call: 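a well is active when its z-score exceeds 2.8 or falls below -1.5; control wells carry no call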

TNF reporter robust z-score | outcome | target
-0.26 | inactive | ZBTB25
-0.83 | inactive | ZBTB25
0.55 | inactive | ZBTB25
0.45 | inactive | ZBTB25
-1.28 | inactive | SCNN1A
-0.61 | inactive | SCNN1A
-1.6 | active | SCNN1A
0.04 | inactive | SCNN1A
-0.5 | inactive | RGS9
-0.75 | inactive | RGS9
-1.66 | active | RGS9
-1.13 | inactive | RGS9
-0.76 | inactive | MFAP3
-0.51 | inactive | MFAP3
-0.13 | inactive | MFAP3
0.29 | inactive | MFAP3
-1.57 | active | CTDSP1
-1.52 | active | CTDSP1
-1.34 | inactive | CTDSP1
2.25 | inactive | SPATA6
2.04 | inactive | SPATA6
0.06 | inactive | SPATA6
1.08 | inactive | SPATA6
-0.6 | inactive | SUPT4H1
2.12 | inactive | SUPT4H1
-0.22 | inactive | SUPT4H1
-0.05 | inactive | SUPT4H1
-0.21 | inactive | OXCT1
-0.22 | inactive | OXCT1
-0.86 | inactive | OXCT1
-0.36 | inactive | OXCT1
0.2 | inactive | MIR22HG
-0.43 | inactive | MIR22HG
-0.22 | inactive | MIR22HG
-0.35 | inactive | MIR22HG
-0.62 | inactive | B3GALT1
0.25 | inactive | B3GALT1
-0.15 | inactive | B3GALT1
0.52 | inactive | B3GALT1
0.44 | inactive | VENTX
0.16 | inactive | VENTX
-0.32 | inactive | VENTX
-0.22 | inactive | VENTX
1.86 | inactive | TRAPPC4
1.47 | inactive | TRAPPC4
0.99 | inactive | TRAPPC4
1.87 | inactive | TRAPPC4
-1.16 | inactive | SLC35A3
-0.48 | inactive | SLC35A3
-0.82 | inactive | SLC35A3
-0.97 | inactive | SLC35A3
1.61 | inactive | KCNG1
1.06 | inactive | KCNG1
1.31 | inactive | KCNG1
1.98 | inactive | KCNG1
-0.51 | inactive | UTS2
-0.36 | inactive | UTS2
-0.83 | inactive | UTS2
-0.9 | inactive | UTS2
2.51 | inactive | STXBP5
2.68 | inactive | STXBP5
1.12 | inactive | STXBP5
2.83 | active | STXBP5
1.71 | inactive | OR5C1
0.98 | inactive | OR5C1
-0.31 | inactive | OR5C1
0.54 | inactive | OR5C1
-0.41 | inactive | HLA-DQA1
0.39 | inactive | HLA-DQA1
0.57 | inactive | HLA-DQA1
0.68 | inactive | HLA-DQA1
1.45 | inactive | MTRES1
0.92 | inactive | MTRES1
0.74 | inactive | MTRES1
-0.28 | inactive | CRABP2
0.05 | inactive | CRABP2
-0.51 | inactive | CRABP2
0.42 | inactive | CRABP2
-0.51 | inactive | RNASEH2C
0.51 | inactive | RNASEH2C
-0.98 | inactive | RNASEH2C
1.21 | inactive | RNASEH2C
1.82 | inactive | PLAAT3
2.37 | inactive | PLAAT3
3 | active | PLAAT3
3.51 | active | PLAAT3
-1.22 | inactive | PANK2
-0.93 | inactive | PANK2
-1 | inactive | PANK2
-0.83 | inactive | PANK2
0.61 | inactive | SMAP2
0.35 | inactive | SMAP2
-0.59 | inactive | SMAP2
-1.04 | inactive | SMAP2
-1.02 | inactive | BCL11B
-1.07 | inactive | BCL11B
-0.11 | inactive | BCL11B
-0.87 | inactive | BCL11B
0.67 | inactive | NT5C1B
0.34 | inactive | NT5C1B
0.24 | inactive | NT5C1B
1.38 | inactive | NT5C1B
2.84 | active | MYRF
0.81 | inactive | MYRF
1 | inactive | MYRF
1.38 | inactive | MYRF
1.28 | inactive | FGFRL1
0.68 | inactive | FGFRL1
0.55 | inactive | FGFRL1
1.74 | inactive | FGFRL1
